Data on one substance can be found in paper PMC10951237.

The chains behind the UniProt entries cited, without tags or fusion partners. Where a name states a change or a piece, a line headed by the entry shows the natural chain unless it says otherwise. A line that says so, or that is headed by a name, gives the form on record, which may keep a tag or linker. Residues count along the entry.
UniProt Q15116: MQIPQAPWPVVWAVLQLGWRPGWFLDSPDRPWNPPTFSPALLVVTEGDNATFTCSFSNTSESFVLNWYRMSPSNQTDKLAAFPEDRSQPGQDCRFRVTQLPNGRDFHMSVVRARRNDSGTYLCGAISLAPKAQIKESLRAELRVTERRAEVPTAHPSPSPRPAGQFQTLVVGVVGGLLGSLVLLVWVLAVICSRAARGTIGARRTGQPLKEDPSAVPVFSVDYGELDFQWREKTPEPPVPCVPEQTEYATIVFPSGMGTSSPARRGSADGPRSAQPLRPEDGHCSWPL
PD-1 on 293 T cells transfected with PD-1: residues 25-288 of Q15116
human-Fc-tagged PD-1 (wild type), overexpressed in 293 T cells: residues 25-170 of Q15116
UniProt P47929: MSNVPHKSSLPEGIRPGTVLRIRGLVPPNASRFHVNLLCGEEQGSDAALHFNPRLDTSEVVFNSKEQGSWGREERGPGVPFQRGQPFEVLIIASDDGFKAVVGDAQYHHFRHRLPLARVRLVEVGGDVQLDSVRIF

For assay [1], the target named is PD-1 on 293 T cells transfected with PD-1 (human) (UniProt Q15116). As to the kind of experiment: surface binding assay; galectin 7 on 293 T cells transfected with PD-1; conditions not told in the main text; only the binder purified.
Assay [2] deals with human-Fc-tagged PD-1 (wild type), overexpressed in 293 T cells (human) (UniProt Q15116). Briefly: pull-down; lysate of cells overexpressing hFc-tagged PD-1 (wild type, PNGase F treated 16 h at 37°, or glycosylation site mutants) incubated 2 h with His-tagged galectin 7 (1 uM) in PBS; captured on protein A magnetic beads, washed with PBS-T; Western blot with anti-human-Fc HRP and anti-His-HRP; also with maltose (50 mM) or Acesulfame K (50 mM); only the binder purified. In general terms: In western blotting, separated proteins are transferred to a membrane and probed.

Results are given in words; binding and its absence hold for the method and conditions named. For some assays here: In cells and extracts the contact can be indirect. Some binding calls cover weakened binding; strength is not graded here.

For “His-tagged human galectin 7 recombinant protein (from UniProt P47929 1-136)”, the binding result in assay [1] and in assay [2] was “binds” in each case.
